Data as given in PubChem BioAssay AID504804 (Drosophila RNAi Screening Center, 2011).

Purpose: 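dsRNAs that improve Kc cell survival under doxorubicin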 (primary screen)
Cells: Drosophila Kc cells
Reagents: long dsRNA against Drosophila genes, 0.5 µg dsRNA per well
Duration: 96 h (48 h knock-down, then 48 h drug)
Challenge: doxorubicin 5 µg/ml for 48 h, added 48 h after dsRNA
Measurement: 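Luminescent ATP counts per replicate, not normalised, reflecting viable cells after 48 h dsRNA knock-down followed by 48 h of 5 µg/ml doxorubicin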
Direction: raw ATP luminescence: higher = more viable cells, protection from doxorubicin
Rule for the call: 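z-score of 2 or more over plate mean in both duplicates, retained only when retests and separate dsRNAs confirm the protection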
In all, the deposit lists about 19,000 reagents; this is an unselected part of those that have a named target and a result. Over the whole deposit, 47 (0.25%) are marked active. 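Signals are raw, not normalised; exact z-scores behind calls not deposited; actives needed confirmation, so some wells reaching 2 SD are inactive.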 Entries without a mark were called inactive. Names joined by + are all predicted targets of the reagent.

gene,DRSC id,SD above plate mean,"raw ATP luminescence, replicate 1","raw ATP luminescence, replicate 2"
mRpL13,DRSC02076,,44327,46857
CG12129,DRSC06105,,69447,50923
Sptz,DRSC15758,,44910,58153
CG34325,DRSC19802,,3.73e5,3.46e5
CG34325,DRSC20200,,3.63e5,3.62e5
thoc7,DRSC08512,,43293,55737
Ufsp1,DRSC04958,,1.02e5,94883
Rbm13,DRSC17749,,37550,44040
CG34281,DRSC14807,,1.06e5,83120
enok,DRSC04096,,51847,64600
RNF220,DRSC15652,,46257,38803
CG1092,DRSC12151,,32883,34843
CG9795,DRSC12336,,29697,32557
Start1,DRSC04384,,83647,64660
CG3984,DRSC15530,,1.11e5,74920
Tengl4,DRSC15620,,42800,47607
CG15531,DRSC15068,,32420,48650
mRpS26,DRSC10823,at least 2 SD above plate mean,1.04e5,83867
PAN2,DRSC07115,,74773,66400
Past1,DRSC16784,,47073,52737
CG5781,DRSC02893,,67557,76560
CG6805,DRSC07011,,68627,69143
CG14717,DRSC14940,,55030,55437
Boot,DRSC06412,,41193,64580
CG2187,DRSC15425,,44840,49700
Cdc7,DRSC18428,,31570,30950
Cdc7,DRSC18429,,23980,39940
CG32579,DRSC19872,,3.36e5,2.50e5
dany,DRSC04141,,71043,59847
CG12493,DRSC08279,,92460,78763
CG31253 + CG31131,DRSC13839,,1.89e5,2.25e5
CG15059,DRSC19633,,3.89e5,2.48e5
Vha100-2,DRSC14152,,47170,47440
CG13021,DRSC17893,,54420,51850

An excerpt taken from the entries so far:
gene,DRSC id,SD above plate mean,"raw ATP luminescence, replicate 1","raw ATP luminescence, replicate 2"
Boot,DRSC06412,,41193,64580
CG2187,DRSC15425,,44840,49700
Cdc7,DRSC18428,,31570,30950
Cdc7,DRSC18429,,23980,39940
CG32579,DRSC19872,,3.36e5,2.50e5
dany,DRSC04141,,71043,59847
